Assay results as given in article PMC9700808, “Poly ADP-ribosylation of SET8 leads to aberrant H4K20 methylation in mammalian nuclear genome” (Communications Biology, 2021).

Molecular target: GST-PARP1 DNA binding domain (GST-PARP1 DB)
Test: pull-down; GST-PARP1 fusion fragments on glutathione-Sepharose beads, full-length recombinant SET8 in solution; 1X PBS with 0.1% Triton X-100, 100 µg/ml BSA, 4 °C, 1 h; washes with 1% Triton X-100; western blot with anti-SET8; both purified

B1: full-length recombinant SET8 protein (enzyme, UniProt Q9NQR1 1-393)
chain: MGEGGAAAALVAAAAAAAAAAAAVVAGQRRRRLGRRARCHGPGRAAGGKMSKPCAVEAAAAAVAATAPGPEMVERRGPGRPRTDGENVFTGQSKIYSYMSPNKCSGMRFPLQEENSVTHHEVKCQGKPLAGIYRKREEKRNAGNAVRSAMKSEEQKIKDARKGPLVPFPNQKSEAAEPPKTPPSSCDSTNAAIAKQALKKPIKGKQAPRKKAQGKTQQNRKLTDFYPVRRSSRKSKAELQSEERKRIDELIESGKEEGMKIDLIDGKGRGVIATKQFSRGDFVVEYHGDLIEITDAKKREALYAQDPSTGCYMYYFQYLSKTYCVDATRETNRLGRLINHSKCGNCQTKLHDIDGVPHLILIASRDIAAGEELLYDYGDRSKASIEAHPWLKH
binding: binds

These are yes or no findings as the source states them, for the method shown. Binding calls can cover weak binding; strength is not graded here.
